Test results: patent publication US6335019B1, “Methods for treating sensitivity to protein allergen using peptides which include a T cell epitope recognized by a T cell receptor specific for the protein allergen” (Immulogic Pharmaceutical Corp., priority 1989, dated 2002)
Some results were stated once for a whole list of compounds, not compound by compound. Some ranges recur; such a range may be that of the whole group of compounds.

Test system: ragweed pollen-specific T cells of ragweed allergic patients
Experiment: Secondary and tertiary T cell proliferation assays of a panel of ragweed allergic patients with synthetic peptides
Assay type: cell-based, human
Settings: positive = T cell proliferative response greater than 2-fold above culture medium control
Protocol: Peripheral blood mononuclear cells (PBMC) were purified from 60 ml of heparinized blood from ragweed-allergic patients. PBMC were subsequently treated as described below, although in individual cases, the length of time of cultivation with IL-2 and IL-4 and the specific ragweed proteins and peptides used for stimulation varied. As an example, ten ml of patient 222 PBMC at 10^6/ml were cultured at 37° C. for 7 days in the presence of 20 micrograms aqueous ragweed pollen extract/ml RPMI-1640 supplemented with 5% pooled human AB serum. Viable cells were purified by Ficoll-Hypaque centrifugation and cultured for three weeks at 5 units recombinant human IL-2/ml and 5 units recombinant human IL-4/ml. The resting T cells were then restimulated (secondary) with 20 micrograms aqueous ragweed pollen extract/ml at a density of 2×10^5 cells/ml in the presence of X-irradiated (3500 RADS) autologous PBMC (5×10^5/ml) for three days, purified by Ficoll-Hypaque centrifugation and grown in 5 units IL-2/ml and 5 units IL-4/ml for two weeks. For assay, 2×10^4 resting secondary T cells were restimulated (tertiary) in the presence of 5×10^4 X-irradiated (3500 RADS) autologous PBMC or 2×10^4 autologous Epstein-Barr virus-transformed B cells (20,000 RADS) with various concentrations of allergen or their fragments in a volume of 200 microliters in 96-well round bottom assay plates for 3 days. Each well then received 1 microCurie tritiated (methyl) thymidine for 16 hours. The counts incorporated were collected onto glass fiber filters and processed for liquid scintillation counting. […] Antigens used: IPC aqueous pollen extract (pollen), Hollister-Stier ragweed skin test extract (RWST), ALK cat epithelium skin test extract (CST), affinity 4B5/B7 antibody purified (dialyzed) Amb a I (B7), and chromatographically purified Amb a I and (Amb a I). Medium only control is shown as a line with no symbol. Alternatively, PBMC were sometimes carried only into a secondary assay (as outlined above for a tertiary assay) with 20 micrograms aqueous pollen extract 7 days, followed by culture in 5 units IL-2/ml and 5 units IL-4/ml for 2-3 weeks. […] Secondary and tertiary assays of a panel of ragweed allergic patients were performed using synthetic peptides derived from the sequences of various ragweed pollen proteins. […] Another four peptides (RAE15.6, RAE3.D, RAE28.1, RAE26.15) which are also derived from the sequence of the same three cDNA's could stimulate 35 to 58% of the patients' T cells. One peptide (RAE4) which is derived from the cDNA of IPC Clone 5 could also stimulate 25% of the patients' T cells. […] By this method it is possible to identify novel therapeutic and diagnostics entities for use in the treatment and the diagnosis of ragweed allergy.

YTVTSDKDDDVANC [RAE 15.6] was tested, and the “POSITIVE % (patients whose T cells are stimulated by peptide)” value (from here on “POSITIVE %”) (listed as RAE15.6) was 35 to 58%.

In the case of GKADWAENRC [RAE 3.D], the “POSITIVE %” value (listed as RAE3.D) is reported as 35 to 58%.

GFFQVVNNNYDRWGTYA [RAE 26.15] was tested, and the “POSITIVE %” value (listed as RAE26.15) was 35 to 58%.

LENGAIFVASGVDPVLTPEQ [RAE 28.1] was tested, and the “POSITIVE %” value (listed as RAE28.1) was 35 to 58%.
